Laboratory results from US7482347B2, “Piperazine derivatives with CCR-3 inhibiting activity” (priority 2004, dated 2009).
pIC50: −log10 of the molar value. The match of structure and compound is tentative.

Chains of the proteins cited; added tags and fusions are not shown.
UniProt P51677, whole entry: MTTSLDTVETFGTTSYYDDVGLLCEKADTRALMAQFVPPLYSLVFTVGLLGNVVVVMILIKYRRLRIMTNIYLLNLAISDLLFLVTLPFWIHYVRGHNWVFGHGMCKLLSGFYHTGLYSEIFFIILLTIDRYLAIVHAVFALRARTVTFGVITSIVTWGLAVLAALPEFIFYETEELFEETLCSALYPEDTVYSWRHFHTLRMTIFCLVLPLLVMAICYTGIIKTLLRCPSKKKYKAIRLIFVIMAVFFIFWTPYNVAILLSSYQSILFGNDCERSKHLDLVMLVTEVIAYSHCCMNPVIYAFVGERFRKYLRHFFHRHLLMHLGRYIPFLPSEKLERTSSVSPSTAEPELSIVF

Biological target: human CCR-3 (Homo sapiens, UniProt P51677)
Assay: [125I]-human eotaxin binding SPA assay on membranes of RBL-2H3 cells stably expressing CCR3
Details: read-out: IC50 (inhibition of binding of [125I]-human eotaxin to CCR-3), membranes of RBL-2H3 cells expressing CCR3, 50 pM [125I]-human eotaxin, 4 hours at room temperature
Description: Recombinant cells expressing human CCR-3 are captured by wheatgerm agglutinin (WGA) polyvinyltoluidene (PVT) SPA beads (available from Amersham), through a specific interaction between the WGA and carbohydrate residues of glycoproteins on the surface of the cells. [^125I]-human eotaxin (available from Amersham) binds specifically to CCR-3 receptors bringing the [^125I]-human eotaxin in close proximity to the SPA beads. Emitted â-particles from the [^125I]-human eotaxin excite, by its proximity, the fluorophore in the beads and produce light.
Preparation of Assay Buffer: 5.96 g HEPES and 7.0 g sodium chloride are dissolved in distilled water and 1 M aqueous CaCl2 (1 ml) and 1M aqueous MgCl2 (5 ml) are added. The pH is adjusted to 7.6 with NaOH and the solution made to a final volume of 1 l using distilled water. 5 g bovine serum albumin and 0.1 g sodium azide are then dissolved in the solution and the resulting buffer stored at 4° C. A COMPLETE™ protease inhibitor cocktail tablet (available from Boehringer) is added per 50 ml of the buffer on the day of use. […]
The assay is performed in a final volume of 250 μl per well of an OPTIPLATE™ microplate (ex Canberra Packard). […] The resulting scintillations are counted using a Canberra Packard TopCount, each well being counted for 1 minute. […]

## COC(=O)c1sccc1S(=O)(=O)N1CCC(CN2CCN(Cc3ccc(F)cc3)CC2)CC1
  pIC50: 6.54
